In the DeepSol protein solubility set:

Experiment: soluble on expression in E. coli; label from the status in PepcDB or PDB records

Sequence	soluble on expression in E. coli
MSIVRRSNVFDPFADLWADPFDTFRSIVPAISGGGSETAAFANARMDWKETPEAHVFKADLPGVKKEEVKVEVEDGNVLVVSGERTKEKEDKNDKWHRVERSSGKFVRRFRLLEDAKVEEVKAGLENGVLTVTVPKAEVKKPEVKAIQISG	soluble
MSKRDYYEVLGVERGATEADLKKAYRRLAMKYHPDRNPGDKESEDKFKEANEAYEVLSDASKRAAFDQYGHAGVDPSMGGGGAGFGGANFSDIFGDVFSDFFGGGGRGGGRGGAQRGSDLRYTLELNLEEAVRGTTVSIRVPTLVNCQPCDGSGAKKGSTPSTCPTCGGIGQVRMQQGFFSVQQTCPRCHGQGKIITDPCTSCHGEGRVEEYKTLSVKVPAGVDTGDRIRLSGEGEAGTHGGPTGDLYVVISVREHEIFQRDGKHLYCEVPISYTDAALGGELEVPTLDGRVKLKIPEGTQTGKQFRLRGKGVAPVRGGGAGDLLCRVAVETPVLEHHHHHH	not soluble
MSLGDLKLWYKQPAGTWVEALPVGNSRMGAMVYGGTAREELQLNDETMWGGSPYRNDKPEALESLPQVRELIFAGKNMEAQNLIQENFYAGKHGMPYQTIGSLIIETPGHEKVTDYYRDLDLERAVATTRYKVDGVTFQREVFASFPDKVVVVRLTADRPGKLNFKVGYVSPLEHKVSRKGKKLVLTGKGRDHEGVKGLIRMETQTQADVDGGKVKIDDQNITVEGADSVTLYVSSGTNFINYHDISGNESKKASGYLSLALGRPYSQVLQEHIALYKEQFDRVRLDLGTSERAKLETVKRIELFNEGKDVSLAVLLFQYGRYLLISSSQPGGQPANLQGIWNNKLAAPWDGKYTININTEMNYWPAEVTNLSETHQPLFEMVKELSVTGRETARTMYGCNGWVAHHNTDIWRATGPVDKAFYGTWPMGGAWLTTHLWQHYLYSGDKLFLSEAYPALKGAADFYLDYLTEHPEYGWMVTAPSMSPEHGPSGEDTKKASTIVSGCTMDNQIIFDVLSNALHASRILKMSASYQDSLRSMLNRLAPMQIGKYNQLQEWLEDLDNPNDKHRHISHVYGLFPSNQISPYTHPLLFQAAKNTLLQRGDEATGWSIGWKVNLWARLLDGNHAFRIINNMLKLLPGDEVKEAYPQGRTYPNLFDAHPPFQIDGNFGYTAGVAEMLLQSHDGAVHLLPALPDAWATGSVQGLVARGGFVVDMNWNGVQLDKAKIHSRLGGNLRLRSYVPLREGHHHHHH	not soluble
MSLKSERRGIHVDQSDLLCKKGCGYYGNPAWQGFCSKCWREEYHKARQKQIQEDWELAERLQREEEEAFASSQS	soluble
NTTAPSLLSAYGLNSYTSSNSGSVTKAAESTETAVADSASNKHEANQIRSGDFSIDSAIKKAADKYGVDEKLIRAVIKQESGFNAKAVSGAGAMGLMQLMPSTASSLGVSNPLDPQQNVEGGTKYLKQMLDKYDGNVSMALAAYNAGPGNVDRYGGIPPFQETQNYVKK	not soluble
SAKFILRKAEPKDVSDILRLIKELAKFEEMEEQVVLTEKELLEDGFGDHPFYHCVVAEVPKDNQSIEGYTVVGFAMYYFTYDPWIGKLLYLEDFYVMKEFRGYGMGSEILKMLSETAVKTRCSGMHFIVAEWNTTSIEFYKRRGASDLSHEEGWRLYEIDKCNLLKMSSK	soluble
SDSCVIPLRHGGLSLVQTTDFFYPLVEDPYMMGRIACANVLSDLYAMGITECDNMLMLLSVSQKMNEKERDLVLPLMMKGFRDAAEEGGTSVTGGQTVINPWIIIGGVASVVCQPNDFILPDGAVPGDVLVLTKPLGTQVAVNAHQWLDIPEKWNKIKLVISREEVEQAYQEAMLNMATLNRTAAALMHKFNAHAATDITGFGIIGHARNLAKQQKNDVAFVIHNLPIISKMAAISKAGGNLFGLLQGTSSETSGGLLICLPREQAARFCAEMKSSRMGLLGAGQDGGVGDGQQAWIIGIVEKGNRCARIIDKPRIIEVPYRGSVVSVQEGSNNNASPPEVQLA	soluble
SMVLKVEELVTGKKNGNGEAGEFLPEDFRDGEYEAAVTLEKQEDLKTLLAHPVTLGEQQWKSEKQREAELKKKKLEQRSKLENLEDLEIIIQLKKRKKYRKTKVPVVKEPEPEIITEPVDVPTFLKAALENKLPVVEKFLSDKNNPDVCDEYKRTALHRACLEGHLAIVEKLMEAGAQIEFRDMLESTAIHWASRGGNLDVLKLLLNKGAKISARDKLLSTALHVAVRTGHYECAEHLIACEADLNAKDREGDTPLHDAVRLNRYKMIRLLIMYGADLNIKNCAGKTPMDLVLHWQNGTKAIFDSLRENSYKTSRIATF	soluble
